Reference: PubChem BioAssay AID686943 (Drosophila RNAi Screening Center, 2013)
Test: 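Search across the genome for regulators of signalling from receptor tyrosine kinase to ERK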 (primary screen). Cells: Drosophila S2R+ haemocyte-like cells expressing YFP-tagged ERK (Rolled). Reagent: long dsRNA against Drosophila genes. Challenge: insulin stimulation versus unstimulated cells; dose and duration not given. Detection: 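Per-plate z-scores of phospho-ERK immunostaining normalised to YFP-tagged ERK, measured with and without insulin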. Scale: replicate 1, z-score of dpERK with insulin and replicate 2, z-score of dpERK with insulin: higher = more active ERK per ERK-YFP after insulin; replicate 1, z-score of dpERK under basal conditions: higher = more basal active ERK per ERK-YFP; replicate 1, z-score of ERK-YFP with insulin: higher = more YFP-tagged ERK signal.
The deposit covers about 23,000 reagents; this is an unselected part of those that have a named target and a result. 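Extra replicates exist only for a retested subset of genes; insulin dose and duration not given; both raised and lowered dpERK matter.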 A plus sign joins genes that one reagent is predicted to hit. Not given: the amount of reagent, the time to read-out.

gene | amplicon | replicate 1, z-score of dpERK with insulin | replicate 2, z-score of dpERK with insulin | replicate 1, z-score of dpERK under basal conditions | replicate 1, z-score of ERK-YFP with insulin
Rnmt (GeneID 34877) | DRSC03558 | 0.57 | 0.74 | -0.61 | -0.11
CR40282 (GeneID 12798062) | DRSC07814 | -0.72 | -0.44 | 1.23 | -1.99
CG15480 (GeneID 34723) | DRSC02490 | 0.47 | -0.12 | 0.42 | -0.35
CG43428 (GeneID 12798467) | DRSC06205 | 0.86 | 0.19 | -0.11 | -0.46
bru2 (GeneID 250811) | DRSC01246 | -0.64 | -1.55 | 0.26 | -1.84
bru2 (GeneID 250811) | DRSC01247 | -6.47 | -3.18 | -2.2 | -1.8
bru2 (GeneID 250811) | DRSC01249 | 0.9 | 0.18 | 0.45 | -0.15
bru2 (GeneID 250811) | DRSC01250 | -0.93 | 0.36 | -0.49 | 2.55
bru2 (GeneID 250811) | DRSC02557 | -0.54 | -1.52 | -1.99 | -0.87
CG31139 (GeneID 42698) | DRSC21393 | 0.41 | -0.78 | 0.74 | 0.17
Atg4b (GeneID 41868) | DRSC15988 | 0.25 | -0.13 | 0.11 | 1.03
E(spl)m7-HLH (GeneID 43160) | DRSC16696 | 0.3 | 0.14 | 1.71 | 0.53
PheRS-m (GeneID 36547) | DRSC05915 | 0.04 | -0.01 | 0.11 | 0
CG13332 (GeneID 36504) | DRSC06367 | 0.14 | -0.27 | 0.71 | 0.05
Osi8 (GeneID 40762) | DRSC12277 | -0.1 | -0.75 | -0.06 | 0.14

Taken from above:
Under “replicate 1, z-score of dpERK with insulin”, Rnmt (GeneID 34877) [DRSC03558] has 0.57
Under “replicate 1, z-score of dpERK under basal conditions”, bru2 (GeneID 250811) [DRSC01246] is entered as 0.26
Result for bru2 (GeneID 250811) [DRSC01247] in “replicate 1, z-score of ERK-YFP with insulin”: -1.8
Entry for CG13332 (GeneID 36504) [DRSC06367] under “replicate 1, z-score of dpERK under basal conditions”: 0.71
bru2 (GeneID 250811) [DRSC01249], replicate 1, z-score of ERK-YFP with insulin → -0.15
Under “replicate 1, z-score of dpERK under basal conditions”, CG31139 (GeneID 42698) [DRSC21393] shows 0.74

The results go on.
gene | amplicon | replicate 1, z-score of dpERK with insulin | replicate 2, z-score of dpERK with insulin | replicate 1, z-score of dpERK under basal conditions | replicate 1, z-score of ERK-YFP with insulin
CG4456 + Hsp22 | DRSC11187 | 0.17 | 0.1 | 2.08 | 0.56
CG4456 + Hsp22 | DRSC11192 | 1.1 | 1.14 | -0.52 | 0.27
Ggamma30A (GeneID 45234) | DRSC02715 | 0.34 | 0.48 | 0.6 | 0.43
Ggamma30A (GeneID 45234) | DRSC03331 | -0.06 | 0.68 | 1.21 | -0.2
HBS1 (GeneID 117365) | DRSC08544 | -2.1 | -1.47 | 0.81 | 0.93
CG9784 (GeneID 32629) | DRSC20210 | 0.14 | 0.78 | -0.56 | -0.08
CG12464 (GeneID 36516) | DRSC06156 | 1.05 | -0.13 | -0.26 | -0.11
CG3740 (GeneID 31119) | DRSC18508 | -0.92 | 0.28 | -0.69 | -0.02
djl (GeneID 40839) | DRSC12578 | -0.1 | -0.25 | -0.81 | 0.17
fj (GeneID 37089) | DRSC07619 | 0.28 | -0.27 | 0.24 | 0.03
CG43260 (retired record) (GeneID 12798173) | DRSC19313 | 0.25 | 0.48 | 0.27 | -0.28
CG7071 + Muted | DRSC16189 | -0.5 | -0.12 | 0.28 | -0.3
lncRNA:sphinx + ATPsynF | DRSC17191 | -0.42 | -1.54 | -1.9 | 1.37
CG6005 (GeneID 42279) | DRSC15945 | 0.13 | -0.29 | -0.34 | 0.6
Gpdh3 (GeneID 42624) | DRSC15325 | 0.12 | 0.25 | -0.99 | 0.18
CG2887 (GeneID 31978) | DRSC18235 | -0.62 | -0.39 | -0.19 | 1.31
CG12682 (GeneID 31415) | DRSC17873 | 0.11 | -0.03 | 0.46 | 0.36
Claspin (GeneID 326205) | DRSC08308 | -0.89 | -0.46 | -1.37 | 1.04
TBPH (GeneID 37781) | DRSC04660 | -0.51 | -0.33 | -0.46 | -0.91
dpa (GeneID 35679) | DRSC07604 | 0.38 | -0.09 | -0.42 | -0.07
CG14244 (GeneID 50080) | DRSC14739 | -0.25 | -0.14 | -0.53 | -0.33
CG32061 (GeneID 39196) | DRSC22605 | 0.2 | 0.25 | -0.28 | -0.48
CG31751 (GeneID 35118) | DRSC02464 | -0.31 | 0.8 | -0.53 | 0.92
CG31751 (GeneID 35118) | DRSC02465 | -0.29 | 0.24 | 1.86 | 0.14
